Test results: patent US6709838
No constants are given. Whether binding was seen depends on the method and setting. In cells and extracts the contact can be indirect. Some results given as binding are weak or reduced against the parent protein; the word gives no strength. Where a sequence is shown, tags or fusion partners need not be part of it.

Protein sequences, listed by entry. Tags and fused reporters are not part of them. Lines headed by an entry give the natural chain unless they say otherwise; changes in a name come on top.
UniProt P97698: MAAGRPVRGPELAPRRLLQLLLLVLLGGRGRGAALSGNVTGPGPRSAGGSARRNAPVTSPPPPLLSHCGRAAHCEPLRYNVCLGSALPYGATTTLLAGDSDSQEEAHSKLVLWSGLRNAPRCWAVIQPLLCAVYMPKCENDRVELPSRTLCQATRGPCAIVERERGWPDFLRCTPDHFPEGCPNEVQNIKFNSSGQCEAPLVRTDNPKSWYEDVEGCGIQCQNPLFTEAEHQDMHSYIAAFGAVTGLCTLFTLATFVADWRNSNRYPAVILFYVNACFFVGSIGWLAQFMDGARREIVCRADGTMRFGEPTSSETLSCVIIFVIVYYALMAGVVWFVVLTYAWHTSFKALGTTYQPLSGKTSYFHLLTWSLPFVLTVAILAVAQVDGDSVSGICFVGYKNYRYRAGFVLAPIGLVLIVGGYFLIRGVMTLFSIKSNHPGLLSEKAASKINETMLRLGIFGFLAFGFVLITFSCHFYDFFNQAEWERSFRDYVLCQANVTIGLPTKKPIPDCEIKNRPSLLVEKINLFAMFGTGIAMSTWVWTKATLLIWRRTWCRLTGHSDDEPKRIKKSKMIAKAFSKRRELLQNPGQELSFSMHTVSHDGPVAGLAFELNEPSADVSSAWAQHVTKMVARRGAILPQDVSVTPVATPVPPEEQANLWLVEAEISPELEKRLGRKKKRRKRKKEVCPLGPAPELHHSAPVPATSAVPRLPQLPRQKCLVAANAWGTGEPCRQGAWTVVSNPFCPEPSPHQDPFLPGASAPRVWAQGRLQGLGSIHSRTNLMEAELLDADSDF

Key:
[1] = target: myc-epitope tagged Smo (SEQ ID NO:15) (Rattus norvegicus (Rat)) (UniProt P97698); assay: co-immunoprecipitation (summary of Example 1)
[2] = target: myc-epitope tagged Smo (SEQ ID NO:15) (Rattus norvegicus (Rat)) (UniProt P97698); assay: co-immunoprecipitation, co-transfected 293 cells
[3] = target: myc-epitope tagged Smo (SEQ ID NO:15) (Rattus norvegicus (Rat)) (UniProt P97698); assay: co-immunoprecipitation with 9E10 anti-myc or M2 anti-FLAG, western blot
[4] = target: myc-epitope tagged Smo (SEQ ID NO:15) (Rattus norvegicus (Rat)) (UniProt P97698); assay: co-immunoprecipitation and western blot, co-transfected 293 cells (FIG. 7B legend)

binding [1]: binds | binding [2]: binds | binding [3]: binds | binding [4]: binds
B1: Flag-tagged Ptch-2 (SEQ ID NO:2) (receptor, not shown: small tags and cut ends)
chain: MTRSPPLRELPPSYTPPARTAAPQILAGSLKAPLWLRAYFQGLLFSLGCGIQRHCGKVLFLGLLAFGALALGLRMAIIETNLEQLWVEVGSRVSQELHYTKEKLGEEAAYTSQMLIQTARQEGENILTPEALGLHLQAALTASKVQVSLYGKSWDLNKICYKSGVPLIENGMIEWMIEKLFPCVILTPLDCFWEGAKLQGGSAYLPGRPDIQWTNLDPEQLLEELGPFASLEGFRELLDKAQVGQAYVGRPCLHPDDLHCPPSAPNHHSRQAPNVAHELSGGCHGFSHKFMHWQEELLLGGMARDPQGELLRAEALQSTFLLMSPRQLYEHFRGDYQTHDIGWSEEQASTVLQAWQRRFVQLAQEALPENASQQIHAFSSTTLDDILHAFSEVSAARVVGGYLLMLAYACVTMLRWDCAQSQGSVGLAGVLLVALAVASGLGLCALLGITFNAATTQVLPFLALGIGVDDVFLLAHAFTEALPGTPLQERMGECLQRTGTSVVLTSINNMAAFLMAALVPIPALRAFSLQAAIVVGCTFVAVMLVFPAILSLDLRRRHCQRLDVLCCFSSPCSAQVIQILPQELGDGTVPVGIAHLTATVQAFTHCEASSQHVVTILPPQAHLVPPPSDPLGSELFSPGGSTRDLLGQEEETRQKAACKSLPCARWNLAHFARYQFAPLLLQSHAKAIVLVLFGALLGLSLYGATLVQDGLALTDVVPRGTKEHAFLSAQLRYFSLYEVALVTQGGFDYAHSQRALFDLHQRFSSLKAVLPPPATQAPRTWLHYYRNWLQGIQAAFDQDWASGRITRHSYRNGSEDGALAYKLLIQTGDAQEPLDFSQLTTRKLVDREGLIPPELFYMGLTVWVSSDPLGLAASQANFYPPPPEWLHDKYDTTGENLRIPPAQPLEFAQFPFLLRGLQKTADFVEAIEGARAACAEAGQAGVHAYPSGSPFLFWEQYLGLRRCFLLAVCILLVCTFLVCALLLLNPWTAGLIVLVLAMMTVELFGIMGFLGIKLSAIPVVILVASVGIGVEFTVHVALGFLTTQGSRNLRAAHALEHTFAPVTDGAISTLLGLLMLAGSHFDFIVRYFFAALTVLTLLGLLHGLVLLPVLLSILGPPPEVIQMYKESPEILSPPAPQGGGLRWGASSSLPQSFARVTTSMTVAIHPPPLPGAYIHPAPDEPPWSPAATSSGNLSSRGPGPATG
